Assay [1] addresses T1, PARG (PTPL1 Associated RhoGAP), the 150 kDa component from PC-3 cell lysate (human) (UniProt Q52LW3).
T1 sequence: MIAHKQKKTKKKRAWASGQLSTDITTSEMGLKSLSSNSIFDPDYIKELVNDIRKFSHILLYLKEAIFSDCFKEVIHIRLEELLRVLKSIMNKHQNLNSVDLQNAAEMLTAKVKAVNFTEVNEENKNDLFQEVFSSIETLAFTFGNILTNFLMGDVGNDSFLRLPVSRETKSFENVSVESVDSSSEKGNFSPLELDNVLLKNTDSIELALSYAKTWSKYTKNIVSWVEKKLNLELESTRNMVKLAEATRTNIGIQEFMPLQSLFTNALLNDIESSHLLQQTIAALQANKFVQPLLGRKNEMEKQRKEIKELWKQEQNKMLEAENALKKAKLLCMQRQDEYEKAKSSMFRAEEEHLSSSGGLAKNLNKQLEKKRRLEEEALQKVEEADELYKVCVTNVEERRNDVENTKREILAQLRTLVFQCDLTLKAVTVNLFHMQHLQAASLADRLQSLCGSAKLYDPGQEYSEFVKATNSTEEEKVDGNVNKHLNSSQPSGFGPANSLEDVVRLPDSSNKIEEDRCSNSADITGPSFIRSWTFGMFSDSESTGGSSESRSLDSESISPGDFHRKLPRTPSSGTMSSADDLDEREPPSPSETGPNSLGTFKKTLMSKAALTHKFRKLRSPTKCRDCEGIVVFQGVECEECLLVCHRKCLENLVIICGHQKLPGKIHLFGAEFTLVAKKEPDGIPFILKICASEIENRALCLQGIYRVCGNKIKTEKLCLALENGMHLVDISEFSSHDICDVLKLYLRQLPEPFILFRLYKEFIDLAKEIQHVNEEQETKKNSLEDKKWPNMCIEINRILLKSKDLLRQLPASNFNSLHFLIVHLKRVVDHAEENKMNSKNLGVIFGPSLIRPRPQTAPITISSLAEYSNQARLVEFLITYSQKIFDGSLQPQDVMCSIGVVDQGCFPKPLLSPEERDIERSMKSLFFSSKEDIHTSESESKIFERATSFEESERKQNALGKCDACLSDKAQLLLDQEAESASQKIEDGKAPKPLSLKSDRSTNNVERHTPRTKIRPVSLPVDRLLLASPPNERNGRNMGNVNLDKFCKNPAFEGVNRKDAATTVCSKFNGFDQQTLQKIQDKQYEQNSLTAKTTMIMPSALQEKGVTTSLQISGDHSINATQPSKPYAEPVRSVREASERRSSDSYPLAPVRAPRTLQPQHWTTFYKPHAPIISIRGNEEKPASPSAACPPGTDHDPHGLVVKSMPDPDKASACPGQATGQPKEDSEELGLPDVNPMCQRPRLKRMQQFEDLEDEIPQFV
Description: GST pull-down / peptide-bead binding, told in the description.

Assay [2] concerns the target T1, PARG (PTPL1 Associated RhoGAP), the 150 kDa component from PC-3 cell lysate (human). As to the kind of experiment: GST pull-down from 35S-labelled PC-3 cell lysate, SDS-gel, fluorography.
The target is the same in assay [3]. As to the kind of experiment: GST pull-down from PC-3 cell lysate (restated in Example 8).

These are yes or no findings as the source states them, for the method shown. In cells and extracts the contact can be indirect. Some results given as binding are weak or reduced against the parent protein; the word gives no strength. Sequences can lack the tags named with a protein.

B1: GST-PDZ 4 (glutathione S-transferase fused to PTPL1 residues 1762-1864) (protein, not shown: a dimerising Fc or GST)
chain: FELEVELLITLIKSEKASLGFTVTKGNQRIGCYVHDVIQDPAKSDGRLKPGDRLIKVNDTDVTNMTHTDAVNLLRAASKTVRLVIGRVLELPRIPMLPHLLPD
For the molecule B1, the binding entry in assay [1], in assay [2] and in assay [3] was “binds” each time.

B2: GST-PDZ 4-5 (glutathione S-transferase fused to PTPL1 residues 1762-1960) (protein, not shown: a dimerising Fc or GST)
chain: FELEVELLITLIKSEKASLGFTVTKGNQRIGCYVHDVIQDPAKSDGRLKPGDRLIKVNDTDVTNMTHTDAVNLLRAASKTVRLVIGRVLELPRIPMLPHLLPDITLTCNKEELGFSLCGGHDSLYQVVYISDINPRSVAAIEGNLQLLDVIHYVNGVSTQGMTLEEVNRALDMSLPSLVLKATRNDLPVVPSSKRSAVS
Consider B2, for which the binding entry in assay [2] was “binds”.

These data come from patent US20030166232A1 (LUDWIG INSTITUTE FOR CANCER RESEARCH, published 2003).
